Results are given in words; binding and its absence hold for the method and conditions named. Binding seen in cells or lysates may run through a third protein. A result given as binding can be weak or reduced; the word gives no strength.
Biological target: AKAP4 (mouse (endogenous in mouse sperm)) (UniProt Q60662)
Assay: co-IP; method 2: mouse sperm extracted in Celis buffer without DTT, dialysed against PBS, precipitated with anti-AKAP3 polyclonal or anti-AKAP4 monoclonal antibody; 2-D Western blot with anti-CABYR-A or anti-CABYR-B; pre-immune serum or normal mouse IgG as control

Chains of the proteins cited; added tags and fusions are not shown. Lines headed by an entry give the natural chain unless they say otherwise; changes in a name come on top.
UniProt Q60662: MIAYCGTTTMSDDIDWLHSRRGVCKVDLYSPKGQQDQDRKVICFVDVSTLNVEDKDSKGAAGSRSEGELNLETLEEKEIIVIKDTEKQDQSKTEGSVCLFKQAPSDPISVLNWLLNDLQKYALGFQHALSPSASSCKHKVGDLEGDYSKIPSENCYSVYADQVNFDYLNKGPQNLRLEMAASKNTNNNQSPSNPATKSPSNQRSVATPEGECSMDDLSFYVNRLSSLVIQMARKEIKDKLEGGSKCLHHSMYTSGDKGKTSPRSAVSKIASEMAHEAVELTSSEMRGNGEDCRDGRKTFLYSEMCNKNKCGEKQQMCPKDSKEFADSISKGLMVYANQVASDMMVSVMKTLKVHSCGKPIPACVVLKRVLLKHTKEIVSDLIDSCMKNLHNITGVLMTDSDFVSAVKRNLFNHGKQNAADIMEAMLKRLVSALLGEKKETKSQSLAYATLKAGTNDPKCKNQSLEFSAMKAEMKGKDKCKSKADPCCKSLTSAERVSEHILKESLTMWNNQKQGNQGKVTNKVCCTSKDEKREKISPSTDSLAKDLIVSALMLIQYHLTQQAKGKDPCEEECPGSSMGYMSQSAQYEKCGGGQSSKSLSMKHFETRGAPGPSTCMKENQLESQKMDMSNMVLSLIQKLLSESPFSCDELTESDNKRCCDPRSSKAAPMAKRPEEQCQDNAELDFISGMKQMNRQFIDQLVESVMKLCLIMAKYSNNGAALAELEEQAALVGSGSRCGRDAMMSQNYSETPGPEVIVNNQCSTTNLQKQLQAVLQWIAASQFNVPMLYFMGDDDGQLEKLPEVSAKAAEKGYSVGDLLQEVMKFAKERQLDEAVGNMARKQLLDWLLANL

B1: 80 kDa CABYR-A only variant (protein, UniProt Q9D424 1-453)
chain: MISSKPRLVVPYGLKTLLEGVSRAILKTNPTNITQFAAVYFKELIVFREGNSSLDIKDLIKQFHQMKVEKWAEGVTVEKKECIKEPIKPPPVPCKPTHMEKSTDTEEDNVAGPLFSNKTTQFPSVHAEVQSEETSEGARGPSDKPTTPKTDYTPPSSPPPAPVSAEYAYVPADPAQFAAQMLGNVPSTYSEVLMVDVATSTPAVPQDVLSAEFAEEVVLSAPLVCSGETVEVQVVSKTSAQVVVGPVSEAEPPKASSAPLQGEQEPPAHEAPDTQVTSASRISSIYNDVPVNEGVVYVEEIPGYIVIPFTDHDQVACVKEIEQSPPGSPKAVEPKTKISIESLKTVQVEENSQHKSSVHVEAEATVLLSNTALDGQPEVPAEPLDAEGFFKVASENSLHLETEIVIINPDDPGQEESGGNAAPHSSGDPFPPAPGGLTEPEMQPDGEAAPEQV
binding: binds

— paper PMC3398308
